# Test results as given in patent publication US5243030A, “Conjugates of a synthetic peptide for diagnosis and prevention of influenza virus infection” (SRI International, priority 1992, dated 1993).
# At least one peptide structure holds a part that was inferred or is arguable (an end, a ring closure or a residue).
# Experiments:
# Assay in all cases: ELISA, peptide or conjugate as adsorbent, versus monoclonal antibody
# Settings in all cases: peptide or conjugate used as ELISA adsorbent
# [1] = tested on: monoclonal antibody 904/6-D5; type: binding
# [2] = tested on: monoclonal antibody 2BB10-G9; type: binding, Balb/c mice
# [3] = tested on: monoclonal antibody 951-D10-B3; type: binding, Balb/c mice
# [4] = tested on: monoclonal antibody M2-1C6; type: binding
# [5] = tested on: monoclonal antibody 823-D8-B11; type: binding, Balb/c mice
# [6] = tested on: monoclonal antibody 1G11-D11; type: binding, Balb/c mice
# [7] = tested on: monoclonal antibody 6B9-B8; type: binding, Balb/c mice
# [8] = tested on: monoclonal antibody 611-G10-D3; type: binding, Balb/c mice
# [9] = tested on: monoclonal antibody 9E8-B2; type: binding, Balb/c mice
# [10] = tested on: monoclonal antibody 2E5-C1; type: binding, Balb/c mice
# [11] = tested on: monoclonal antibody 961-G8-H3; type: binding, Balb/c mice
# [12] = tested on: monoclonal antibody 951-C4-G2; type: binding, Balb/c mice
# [13] = tested on: monoclonal antibody 289/4-D5; type: binding
# [14] = tested on: monoclonal antibody 821-B8-A8; type: binding, Balb/c mice
# [15] = tested on: monoclonal antibody 3G12-C12; type: binding, Balb/c mice
# [16] = tested on: monoclonal antibody 611-B12-D10; type: binding, Balb/c mice
# [17] = tested on: monoclonal antibody 963-D3-G10; type: binding, Balb/c mice
# [18] = tested on: monoclonal antibody 1G8-A11; type: binding, Balb/c mice
# [19] = tested on: monoclonal antibody 961/6-B10; type: binding, Balb/c mice
structure (smiles),measurement,setting,value
"CC(C)C[C@H](NC(=O)CNC(=O)[C@H](C)NC(=O)[C@H](CO)NC(=O)[C@H](CO)NC(=O)[C@H](CO)NC(=O)[C@@H]1CCCN1C(=O)[C@H](Cc1c[nH]cn1)NC(=O)[C@@H](NC(=O)CN)[C@@H](C)O)C(=O)N[C@@H](CCCCN)C(=O)N[C@@H](CC(N)=O)C(=O)N[C@@H](CC(=O)O)C(=O)N[C@@H](CC(C)C)C(=O)N[C@@H](CC(C)C)C(=O)N[C@@H](CCC(=O)O)C(=O)N[C@@H](CC(N)=O)C(=O)O [Example 1, H-Gly-Thr-His-Pro-Ser-Ser-Ser-Ala-Gly-Leu-Lys-Asn-Asp-Leu-Leu-Glu-Asn-OH]",ELISA Titers,[1],< 300
same,ELISA Titers,[2],< 300
same,ELISA Titers,[3],< 300
same,ELISA Titers,[4],< 300
same,ELISA Titers,[5],< 300
same,ELISA Titers,[6],860
same,ELISA Titers,[7],1350
same,ELISA Titers,[8],< 300
same,ELISA Titers,[9],< 300
same,ELISA Titers,[10],860
same,ELISA Titers,[11],< 300
same,ELISA Titers,[12],< 300
same,ELISA Titers,[13],< 300
same,ELISA Titers,[14],< 300
same,ELISA Titers,[15],< 300
same,ELISA Titers,[16],< 300
same,ELISA Titers,[17],< 300
same,ELISA Titers,[18],< 300
same,ELISA Titers,[19],< 300
